The values below come from publication PMC12047801, “Disrupting the OTUD4-USP7 deubiquitinase complex to suppress herpesvirus replication: a novel antiviral strategy” (PLOS Pathogens, 2025).

Amino acid sequences for entries named in this document (tags omitted). Residues count along the entry.
UniProt Q6A4J8, residues 1-208: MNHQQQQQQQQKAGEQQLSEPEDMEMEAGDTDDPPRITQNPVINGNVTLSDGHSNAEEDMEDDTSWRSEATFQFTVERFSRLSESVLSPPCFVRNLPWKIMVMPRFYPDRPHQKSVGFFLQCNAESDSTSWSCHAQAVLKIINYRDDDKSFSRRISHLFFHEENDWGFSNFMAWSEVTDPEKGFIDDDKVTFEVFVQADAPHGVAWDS

Results are given in words; binding and its absence hold for the method and conditions named. For part of these data: Binding seen in cells or lysates may run through a third protein. Some binding calls cover weakened binding; strength is not graded here. For part of these data: Tags and fused reporters may be left off the sequences shown.

One experiment has as its target GST-USP7-TRAF WT (human) (UniProt Q93009). Put plainly: pull-down; both purified.
Experiment [1] concerns the target GST-USP7-murine TRAF WT (murine) (UniProt Q6A4J8). Put plainly: pull-down; both purified.
Experiment [2] concerns the target USP7 (endogenous in SLK.iBAC-GFP cells) (human (endogenous in SLK.iBAC-GFP)) (UniProt Q93009). Put plainly: proximity ligation; only the binder purified.
The target in experiment [3] is GST-USP7-murine TRAF WT (murine) (UniProt Q6A4J8). The experiment can be described thus: pull-down; only the target purified.
Experiment [4] shares this target. The experiment can be described thus: pull-down; competition: as the GST pull-down, with peptides (100 μM) included throughout the incubation; pair of GST-USP7-TRAF and FLAG-OTUD4; only the target purified.
The target in experiment [5] is Recombinant USP7-TRAF protein (human) (UniProt Q93009). Put plainly: SPR; both purified. In general terms: Surface plasmon resonance follows binding to a sensor surface in real time, without labels.

Turning to YGRKKRRQRRRGGVNQSASQSSN (acetylated at the N-terminus; amidated at the C-terminus) [p8 fused to an N-terminal Tat(47-57) peptide via a GG linker], the binding result (with GST-USP7-TRAF WT (human); in experiment [1]; in experiment [2]) was “binds” each time.

B1: FLAG-mOTUD4 (protein, UniProt B2RRE7 1-1107)
chain: MEAAVGAPDGVDQGGVGPLEDETPMDAYLRKLGLYRKLVAKDGSCLFRAVAEQVLHSQSRHVEVRMACIRYLRENREKFEAFIEGSFEEYLKRLENPQEWVGQVEISALSLMYRKDFVIYQEPNVSPSHVTENNFPEKVLLCFSNGNHYDIVYPITYKDSSAMCQSLLYELLYEKVFKTDVSKIMMGLEASEVAEESNSEISDSEDDSCKSKSTAATDVNGFKPSGSENPKNNGNSADLPLSRKVLKSLNPAVYRNVEYEIWLKSKQAQQKRDYSIAAGLQYEVGDKCHQVRLDHNGKLSNADIHGVHSENGLVLSEELGKKHTPKNLKPPPPESWNTVSGKKMKKPNSGQNFHSDTDYRGPKNLNKPIKAPSALPPRLQHPSSGVRQHAFSSHSTGSQSQKSSSEHKNLSRMPSQITRKPDRERAEDFDHVSRESYYFGLSPEERREKQAIEESRLLYEIQNRDEQAFPALSSSSVSQSPSQNSNACVPRKSSHARDRKGSMRRADAEERKDKDSLRGHTHVDKKPEPSTLEISDDKCTRVSSPSKSKKECPSPVEQKPAEHIPLSNPAPLLVSPEVHLTPAVPSLPATVPAWPSEPTTFGPTGVPAQIPILSVTQTTGPDAAVSQAHLTPSPVPVSIQAVNQPLMPLPQTMSLYQDPLYPGFPCSEKGDRAIAPPYSLCQTGEDLPKDKNILRFFFNLGVKAYSCPMWAPHSYLYPLHQAYMAACRMYPKVPVPVYPQNTWFQEAPPAQSESDCPCTDAHYSLHPEASVNGQMPQAEMGPPAFASPLVIPPSQVSEGHGQLSYQPELESENPGQLLHAEYEESLSGKNMYPQQSFGPNPFLGPVPIAPPFFPHVWYGYPFQGFVENPVMRQNIVLPPDDKGELDLPLENLDLSKECDSVSAVDEFPDARVEGAHSLSAASVSSKHEGRVEQSSQTRKADIDLASGSSAVEGKGHPPTQILNREREPGSAEPEPKRTIQSLKEKPEKVKDPKTAADVVSPGANSVDRLQRPKEESSEDENEVSNILRSGRSKQFYNQTYGSRKYKSDWGSSGRGGYQHVRGEESWKGQPNRSRDEGYQYHRHVRGRPYRGDRRRSGMGDGHRGQHT
Turning to B1, the binding entry in experiment [3] and in experiment [4] was “binds” each time.

Regarding NSSQSASQNVPPRRRQRRKKRGY [p8-DRI (D-retro-inverso p8)], the binding result in experiment [5] is given as “binds”.
